The filed quantity is “Percent Effect” (%).
The record does not define 0% and 100%; most values in the screen are far below 50% and negative numbers occur (in some assays of this library far below -100).
Compounds were drawn at random from those tested, without regard to their results.
A dash means the value is not listed here; it may have been measured.

A: 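Whole-cell assay for inhibitors of Mycobacterium tuberculosis growth, labelled Cornell in the record; the read-out is not stated. The concentration is filed as 10 mM, unlikely as a test dose, so the dose is not known. Higher means stronger inhibition (inferred from two other growth screens of the library). Size under these conditions: about 53,000 compounds, about 900 of them at 50% or above in at least one test.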
B: 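Assay on Mycobacterium tuberculosis, filed only as a heat shock assay from Cornell; the read-out is not stated. The concentration is filed as 10 mM, unlikely as a test dose, so the dose is not known. Direction is inferred from retests: higher values go with stronger inhibition. Size under these conditions: about 69,000 compounds, about 930 of them at 50% or above in at least one test.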

Compound: C=C(C)COc1ccc(C(=O)NCCn2c(C)cc(C)nc2=O)cc1
A: 6.552
B: 12.02

Compound: O=C(NC1CC(=O)N(C2Cc3ccccc3C2)C1)c1cc[n+]([O-])cc1 (centres undefined)
A: -22.78
B: -10.42

Compound: COc1cc(/C=C/c2ncc(C(=O)O)s2)cc(Cl)c1OC
A: -15.18
B: -32.77

Compound: CC1CCCN(CCNC(=O)c2ccn(-c3ccc(F)cc3)n2)C1 (centres undefined)
A: 11.48
B: -19.93

Compound: Cn1ncnc1CNc1ccccc1C(=O)NC(C)(C)C
A: 7.611
B: -2.683

Compound: Cn1cnc2c1C(COCc1cccnc1)N(Cc1ccccc1)CC2 (centres undefined)
A: 19.5
B: -37.37

Compound: O=C(O)C(F)(F)F.O=C(O)C(F)(F)F.[H][C@@]12OCCN(Cc3ccc(OC)cc3)[C@@]1([H])CC[C@H]2OCCN1CCCC1
A: 30.52
B: -17.12

Compound: Cc1noc(C)c1CN1CCCC1c1c(C)nn(C)c1Cl (centres undefined)
A: 14.12
B: 2.414

Compound: Cc1cc(C)nc(N2CCCC(C(=O)Nc3n[nH]c(C(C)C)n3)C2)n1 (centres undefined)
A: 22.77
B: 13.11

Compound: CSC1(CNC(=O)NC(C)Cc2cccc(F)c2)CCOCC1 (centres undefined)
A: 7.075
B: -10.51

Compound: O=S(=O)(NC1CC1)c1cccc(Br)c1
A: -15.89
B: 10.43

Compound: [H][C@@]12CC(=O)N(Cc3csc(C)n3)[C@@]1([H])CCN2Cc1cnn(C)c1
A: 22.08
B: 14.02

Compound: c1csc(CCN2CCCC2c2noc(C3CC3)n2)c1 (centres undefined)
A: 1.308
B: 18.58

Compound: O=C(NCC(O)Cc1ccccc1)c1ccc2[nH]c(=O)[nH]c2c1 (centres undefined)
A: 21.94
B: 14.73

Compound: CN(C)c1nc2c(c(NCc3nnc4n3CCCCC4)n1)CCNC2
B: -12.01

Compound: Cc1cc(SC(C)(C)C)ccc1NC(=O)CNC(N)=O
A: -1.225
B: 2.109

Compound: Cn1cc(CCNC(=O)NC2CCN(Cc3ccccn3)CC2)cn1
B: -30.34

Compound: O=C(c1ccco1)N1CCC[C@]2(C[C@H](Oc3ncccc3F)CO2)C1
A: -25.19
B: -27.34

Compound: COCCn1cnnc1Cn1ccnc1-c1ccsc1
A: -2.47
B: -20.51

Compound: CCNc1cc2c(nn1)CCN(C(=O)Cc1noc3ccccc13)C2
A: 26.06
B: -36.31

Compound: CCCOCCN1CCC2(CC1)CC(=O)N(Cc1cc(F)cc(F)c1)C2
A: 30.44
B: 11.42

Compound: [H][C@@]12CS(=O)(=O)C[C@]1([H])N(C(=O)c1cc(C(C)C)on1)CCN2C(=O)C(C)C
A: -11.59
B: -10.22

Compound: CN(CCn1ccnc1-c1ccccn1)S(C)(=O)=O
A: -15.58
B: -17.19

Compound: O=C1CC(NS(=O)(=O)c2ccccc2)CN1Cc1ccccc1 (centres undefined)
B: -3.155

Compound: Cc1nc(CN(C)C2CCCN(c3cccnn3)C2)nc2ccccc12 (centres undefined)
A: 4.634
B: -12.02

The last 2 entries again:

Compound	A	B
O=C1CC(NS(=O)(=O)c2ccccc2)CN1Cc1ccccc1 (centres undefined)	-	-3.155
Cc1nc(CN(C)C2CCCN(c3cccnn3)C2)nc2ccccc12 (centres undefined)	4.634	-12.02

Source: ChEMBL document CHEMBL3988442, “University of Dundee, Small-Polar-MMV Screening Library” (2021).